These results are taken from the supplement of paper PMC8728848.

This is one part of the list.

What all share (assay): glycan array binding signal (z-score within array); higher = stronger binding
What all share (conditions): glycan notation: IUPAC condensed, linker removed

The target in assay [1] is GlcNAc(b1-2)[GlcNAc(b1-4)]Man(a1-3)[GlcNAc(b1-4)][GlcNAc(b1-2)Man(a1-6)]Man(b1-4)GlcNAc(b1-4)GlcNAc. Put shortly: (§1)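 The binding signal is a Z-score computed within each array. Data were drawn from 3228 arrays in the Consortium for Functional Glycomics database, restricted to those with a known protein sequence. Scores were averaged over arrays of the same protein sequence at different concentrations or buffers, and over linkers, and negative values can be taken as non-binding.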

Assay [2] has as its target GlcNAc(b1-2)[GlcNAc(b1-4)]Man(a1-3)[GlcNAc(b1-4)][GlcNAc(b1-2)[GlcNAc(b1-6)]Man(a1-6)]Man(b1-4)GlcNAc(b1-4)GlcNAc. A digest of the protocol:
as §1

The target of assay [3] is GlcNAc(b1-2)[GlcNAc(b1-4)]Man(a1-3)[GlcNAc(b1-4)][GlcNAc(b1-2)[GlcNAc(b1-6)]Man(a1-6)]Man(b1-4)GlcNAc(b1-4)[Fuc(a1-6)]GlcNAc. A digest of the protocol:
as §1

For assay [4], the target named is GlcNAc(b1-2)[GlcNAc(b1-6)]Man(a1-6)[GlcNAc(b1-2)Man(a1-3)]Man(b1-4)GlcNAc(b1-4)GlcNAc. A digest of the protocol: as §1
For assay [5], the target named is GlcNAc(b1-2)[GlcNAc(b1-6)]Man(a1-6)[GlcNAc(b1-2)Man(a1-3)]Man(b1-4)GlcNAc(b1-4)[Fuc(a1-6)]GlcNAc. A digest of the protocol: as §1
For assay [6], the target named is GlcNAc(b1-2)[GlcNAc(b1-6)]Man(a1-6)[GlcNAc(b1-4)][GlcNAc(b1-2)Man(a1-3)]Man(b1-4)GlcNAc(b1-4)GlcNAc. Put shortly:
as §1

For assay [7], the target named is GlcNAc(b1-3)Fuc. Put shortly: as §1
Assay [8] addresses GlcNAc(b1-3)Gal. A digest of the protocol:
as §1

The target in assay [9] is GlcNAc(b1-3)Gal(b1-3)GalNAc. A digest of the protocol: as §1
For assay [10], the target named is GlcNAc(b1-3)Gal(b1-4)Glc. A digest of the protocol: as §1
The target of assay [11] is GlcNAc(b1-3)Gal(b1-4)GlcNAc. Put shortly: as §1
Assay [12] addresses GlcNAc(b1-3)Gal(b1-4)GlcNAc(b1-2)Man(a1-3)[GlcNAc(b1-3)Gal(b1-4)GlcNAc(b1-2)Man(a1-6)]Man(b1-4)GlcNAc(b1-4)GlcNAc. Put shortly: as §1
Assay [13] has as its target GlcNAc(b1-3)Gal(b1-4)GlcNAc(b1-2)Man(a1-3)[GlcNAc(b1-3)Gal(b1-4)GlcNAc(b1-2)Man(a1-6)]Man(b1-4)GlcNAc(b1-4)[Fuc(a1-6)]GlcNAc. Put shortly: as §1
Assay [14] deals with GlcNAc(b1-3)Gal(b1-4)GlcNAc(b1-2)[GlcNAc(b1-3)Gal(b1-4)GlcNAc(b1-6)]Man(a1-6)[GlcNAc(b1-3)Gal(b1-4)GlcNAc(b1-2)Man(a1-3)]Man(b1-4)GlcNAc(b1-4)GlcNAc. Put shortly: as §1
Assay [15] concerns the target GlcNAc(b1-3)Gal(b1-4)GlcNAc(b1-3)Gal(b1-4)GlcNAc. A digest of the protocol:
as §1

Assay [16] deals with GlcNAc(b1-3)Gal(b1-4)GlcNAc(b1-3)Gal(b1-4)GlcNAc(b1-2)Man(a1-3)[GlcNAc(b1-3)Gal(b1-4)GlcNAc(b1-3)Gal(b1-4)GlcNAc(b1-2)Man(a1-6)]Man(b1-4)GlcNAc(b1-4)GlcNAc. A digest of the protocol:
as §1

Assay [17] concerns the target GlcNAc(b1-3)Gal(b1-4)GlcNAc(b1-3)Gal(b1-4)GlcNAc(b1-2)Man(a1-3)[GlcNAc(b1-3)Gal(b1-4)GlcNAc(b1-3)Gal(b1-4)GlcNAc(b1-2)Man(a1-6)]Man(b1-4)GlcNAc(b1-4)[Fuc(a1-6)]GlcNAc. A digest of the protocol: as §1
Assay [18] concerns the target GlcNAc(b1-3)Gal(b1-4)GlcNAc(b1-3)Gal(b1-4)GlcNAc(b1-2)[GlcNAc(b1-3)Gal(b1-4)GlcNAc(b1-3)Gal(b1-4)GlcNAc(b1-6)]Man(a1-6)[GlcNAc(b1-3)Gal(b1-4)GlcNAc(b1-3)Gal(b1-4)GlcNAc(b1-2)Man(a1-3)]Man(b1-4)GlcNAc(b1-4)[Fuc(a1-6)]GlcNAc. A digest of the protocol: as §1
Assay [19] deals with GlcNAc(b1-3)Gal(b1-4)GlcNAc(b1-3)Gal(b1-4)GlcNAc(b1-3)Gal(b1-4)GlcNAc(b1-2)Man(a1-3)[GlcNAc(b1-3)Gal(b1-4)GlcNAc(b1-3)Gal(b1-4)GlcNAc(b1-3)Gal(b1-4)GlcNAc(b1-2)Man(a1-6)]Man(b1-4)GlcNAc(b1-4)GlcNAc. A digest of the protocol: as §1

B1: DC-Sign-R (Homo sapiens), Q9H2X3 (protein)
chain: MSDSKEPRVQQLGLLEEDPTTSGIRLFPRDFQFQQIHGHKSSTGCLGHGALVLQLLSFMLLAGVLVAILVQVSKVPSSLSQEQSEQDAIYQNLTQLKAAVGELSEKSKLQEIYQELTQLKAAVGELPEKSKLQEIYQELTRLKAAVGELPEKSKLQEIYQELTRLKAAVGELPEKSKLQEIYQELTRLKAAVGELPEKSKLQEIYQELTELKAAVGELPEKSKLQEIYQELTQLKAAVGELPDQSKQQQIYQELTDLKTAFERLCRHCPKDWTFFQGNCYFMSNSQRNWHDSVTACQEVRAQLVVIKTAEEQNFLQLQTSRSNRFSWMGLSDLNQEGTWQWVDGSPLSPSFQRYWNSGEPNNSGNEDCAEFSGSGWNDNRCDVDNYWICKKPAACFRDE
Regarding B1, the “glycan array binding signal (z-score)” value in assay [1] was 2.91; in [2] it was 0.048; in assay [3], 1.65; in assay [4], 0.046; in assay [5], -0.501; in assay [6] it was 0.972. The “glycan array binding signal (z-score)” value in assay [7] was 1.96; in assay [8], -0.169; in assay [9] it was 0.907; in assay [10], -0.451; in assay [11] it was 0.161; in [12], -0.072. The “glycan array binding signal (z-score)” value in assay [13] is 0.094; in assay [14], 2.48; in [15] it was 0.703; in assay [16] it was 0.429; in assay [17], -0.152; in assay [18], -0.433. Moreover, the “glycan array binding signal (z-score)” value in assay [19] was -0.691.
